Data as given in PubChem BioAssay AID504793 (Drosophila RNAi Screening Center, 2011)
Test: 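Knock-downs allowing continued mitosis even though DNA is damaged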 (primary screen). System: Drosophila S2R+ cells. Reagent: long dsRNA against Drosophila genes, about 0.25 µg dsRNA per well. Time to read-out: 4 days of dsRNA, then 4 hours of drug before read-out. Treatment: doxorubicin 0.5 µM for 4 hours to cause double-strand breaks, in cells also given a low, harmless dose of dsRNA against nbs to sensitise the assay. Detection: 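Per-well count of mitotic cells stained for phospho-histone H3 after doxorubicin exposure, used as mitotic index; counts are raw and not normalised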. Direction: mitotic cells: higher = more cells in mitosis, weaker G2 arrest. Call rule: 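a call needs confirmation in secondary tests, with other dsRNAs and a check of mitotic timing without damage, not just a high primary count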. Meaning of the calls: active = confirmed in follow-up tests; inactive = not confirmed.
The screen tested about 23,000 reagents; shown is an unselected part of those with a known target gene and a result. Of all reagents, 62 (0.27%) are marked active. 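Calls come from follow-up tests whose scores are not deposited, so confirmed genes may have low counts here; counts are not normalised per plate.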 Raw values are not corrected between plates. A number with no mark means an inactive call. Reagents against one gene are numbered here. A plus sign joins genes that one reagent is predicted to hit.

Which result is listed for CG13436?
mitotic cells, replicate 1: 11

With Ubc84D #1, what does the deposit list?
mitotic cells, replicate 1: 4

How did the screen score Ubc84D #2?
mitotic cells, replicate 1: 11

For Ggamma30A + borr, how do the results read?
mitotic cells, replicate 1: 4

What did the screen give for Nlg3 #1?
mitotic cells, replicate 1: 2

For Nlg3 #2, what was measured?
mitotic cells, replicate 1: 4

With Nlg3 #3, how do the results read?
mitotic cells, replicate 1: 5

Which result is listed for Nlg3 #4?
mitotic cells, replicate 1: 5

For CG5359 + Spn85F, how do the results read?
mitotic cells, replicate 1: 3

What is on record for CG32237 #1?
mitotic cells, replicate 1: 5

Which result is listed for CG32237 #2?
mitotic cells, replicate 1: 6

How did the screen score CG32237 #3?
mitotic cells, replicate 1: 5

For Jon25Bii #1, what does the deposit list?
mitotic cells, replicate 1: 2

With Jon25Bii #2, how do the results read?
mitotic cells, replicate 1: 4

With Mst85C #1, how do the results read?
mitotic cells, replicate 1: 7

With Mst85C #2, what does the deposit list?
mitotic cells, replicate 1: 6

With lncRNA:CR42862 #1, what was measured?
mitotic cells, replicate 1: 10

What is on record for lncRNA:CR42862 #2?
mitotic cells, replicate 1: 4

What is on record for lncRNA:CR42862 #3?
mitotic cells, replicate 1: 6

Which result is listed for fs(1)Ya?
mitotic cells, replicate 1: 21

What is on record for CG9698?
mitotic cells, replicate 1: 7

With Cul6, what was measured?
mitotic cells, replicate 1: 7

Which result is listed for Cyp4d8 #1?
mitotic cells, replicate 1: 3

With Cyp4d8 #2, what was measured?
mitotic cells, replicate 1: 5

How did the screen score CG8858?
mitotic cells, replicate 1: 13

For MAGE, how do the results read?
mitotic cells, replicate 1: 5

For capu #1, what does the deposit list?
mitotic cells, replicate 1: 7

What did the screen give for capu #2?
mitotic cells, replicate 1: 3

With CG31546 #1, what was measured?
mitotic cells, replicate 1: 6

For CG31546 #2, how do the results read?
mitotic cells, replicate 1: 6

With bnb #1, how do the results read?
mitotic cells, replicate 1: 5

What is on record for bnb #2?
mitotic cells, replicate 1: 6

For Cyt-c1L #1, how do the results read?
mitotic cells, replicate 1: 10

What is on record for Cyt-c1L #2?
mitotic cells, replicate 1: 4

For Cyt-c1L #3, what was measured?
mitotic cells, replicate 1: 5

Which result is listed for CG4615 #1?
mitotic cells, replicate 1: 10

With CG4615 #2, what was measured?
mitotic cells, replicate 1: 4

What is on record for CG4615 #3?
mitotic cells, replicate 1: 5

Which result is listed for sand?
mitotic cells, replicate 1: 6

How did the screen score ORY?
mitotic cells, replicate 1: 5

With l(3)62Be (retired record), how do the results read?
mitotic cells, replicate 1: 13

What is on record for CG13364 #1?
mitotic cells, replicate 1: 10

How did the screen score CG13364 #2?
mitotic cells, replicate 1: 4

For CG13364 #3, what does the deposit list?
mitotic cells, replicate 1: 3

Single entries from the entries so far:
bnb #2, mitotic cells, replicate 1 → 6
For “mitotic cells, replicate 1”, CG31546 #1 reads 6
CG13364 #3, mitotic cells, replicate 1 → 3
Value of Mst85C #1 in “mitotic cells, replicate 1”: 7
